Laboratory results: patent publication US9617222B1, “Alkynyl indazole derivative and use thereof” (SENJU PHARMACEUTICAL CO., LTD., priority 2014, dated 2017)

Tested on: Human Retinal Microvascular Endothelial (hRMVE) Cells (hRMVEC)
Assay: Growth inhibition of hRMVE cells under VEGF stimulation (MTT assay)
Assay type: cell-based
Conditions: recombinant human VEGF, 48 hours, read-out: Cell Growth Inhibition Activity
Description: Culture and passage of human retinal microvascular endothelial cells (Cell Systems Corporation, Human Retinal Microvascular Endothelial Cells, catalog number: ACBRI 181) were carried out according to the attached protocol. An adhesion factor solution (Cell Systems Corporation, Attachment Factor) was added to a 96-well plate (Iwaki Glass Co., Ltd.), fitted well, and then removed, so that the wells were coated. Subsequently, cells (hRMVEC) which were suspended in CS-C medium (Cell Systems Corporation, CS-C medium kit, catalog number: CS-4Z0-500R) containing serum, growth factors and Culture Boost were seeded at a density of 2×10^3 cells/100 μL/well, and cultured at 37° C. under 5% CO2 for 1 day. After that, the medium was removed from the hRMVEC, washed with PBS twice, and then cultured in CS-C medium (Cell Systems Corporation, CS-C medium kit, catalog number: CS-4Z3-500R) containing 1% FBS and a growth factor for 6 hours. […]
The cell number was measured by MTT assay (DOJINDO LABORATORIES: Cell Counting Kit-8 was used), and the growth inhibition rate of hRMVEC by the compound was calculated from the following calculation equation. Cell growth inhibition rate (%)=100−100×(absorbance of well to which the VEGF and compound are added−absorbance of well to which no VEGF is added)/(absorbance of well to which VEGF is added−absorbance of well to which no VEGF is added) […]

For `CNC(=O)c1ccccc1Sc1ccc2c(/C=C/c3ccccn3)n[nH]c2c1` [Compound A, 6-[2-(methylcarbamoyl)phenylsulfanyl]-3-E-[2-(pyridine-2-yl)ethenyl]indazole, reference compound], the IC50 was 0.24 nM.
